These results are taken from paper PMC6362000.

Protein sequences, listed by entry. Tags and fused reporters are not part of them. Residues count along the entry.
UniProt P31431, residues 19-198: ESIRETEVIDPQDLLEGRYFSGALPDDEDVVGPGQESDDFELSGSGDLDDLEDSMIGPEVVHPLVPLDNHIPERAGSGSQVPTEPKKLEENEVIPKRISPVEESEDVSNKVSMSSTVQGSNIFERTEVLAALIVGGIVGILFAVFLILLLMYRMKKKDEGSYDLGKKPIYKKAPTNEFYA

These are yes or no findings as the source states them, for the method shown. In cells and extracts the contact can be indirect. A yes stands for co-enrichment or nearness to the bait. Other partners may have been found.

Experiment [1] addresses GFP-tagged syndecan-4 (WT SDC4) (human) (UniProt P31431). Kind of experiment: affinity purification with mass spectrometry; whole cell extract of stable GFP-tagged SDC4 transfectant; anti-GFP magnetic beads (µMACS GFP Isolation Kit), on-bead trypsin digestion, LC-MS/MS.
For experiment [2], the target named is GFP-tagged WT syndecan-4 (human) (UniProt P31431). The experiment can be described thus: affinity purification with mass spectrometry; whole cell extract (2 mg) of the stable transfectant of GFP-tagged SDC4, anti-GFP magnetic beads (µMACS), detergent-free washes, on-bead trypsin digestion, LC-MS/MS.

B1: flotillin 1 (protein, UniProt O75955 1-427)
chain: MFFTCGPNEAMVVSGFCRSPPVMVAGGRVFVLPCIQQIQRISLNTLTLNVKSEKVYTRHGVPISVTGIAQVKIQGQNKEMLAAACQMFLGKTEAEIAHIALETLEGHQRAIMAHMTVEEIYKDRQKFSEQVFKVASSDLVNMGISVVSYTLKDIHDDQDYLHSLGKARTAQVQKDARIGEAEAKRDAGIREAKAKQEKVSAQYLSEIEMAKAQRDYELKKAAYDIEVNTRRAQADLAYQLQVAKTKQQIEEQRVQVQVVERAQQVAVQEQEIARREKELEARVRKPAEAERYKLERLAEAEKSQLIMQAEAEAASVRMRGEAEAFAIGARARAEAEQMAKKAEAFQLYQEAAQLDMLLEKLPQVAEEISGPLTSANKITLVSSGSGTMGAAKVTGEVLDILTRLPESVERLTGVSISQVNHKPLRTA
Take B1: the binding result in experiment [1] and in experiment [2] was “binds” throughout.

B2: flotillin 2 (protein, UniProt Q14254 1-428)
chain: MGNCHTVGPNEALVVSGGCCGSDYKQYVFGGWAWAWWCISDTQRISLEIMTLQPRCEDVETAEGVALTVTGVAQVKIMTEKELLAVACEQFLGKNVQDIKNVVLQTLEGHLRSILGTLTVEQIYQDRDQFAKLVREVAAPDVGRMGIEILSFTIKDVYDKVDYLSSLGKTQTAVVQRDADIGVAEAERDAGIREAECKKEMLDVKFMADTKIADSKRAFELQKSAFSEEVNIKTAEAQLAYELQGAREQQKIRQEEIEIEVVQRKKQIAVEAQEILRTDKELIATVRRPAEAEAHRIQQIAEGEKVKQVLLAQAEAEKIRKIGEAEAAVIEAMGKAEAERMKLKAEAYQKYGDAAKMALVLEALPQIAAKIAAPLTKVDEIVVLSGDNSKVTSEVNRLLAELPASVHALTGVDLSKIPLIKKATGVQV
On to B2, for which the binding entry in experiment [1] and in experiment [2] was “binds” each time.
